Our source for the binding values is PMC9507964.

The chains behind the UniProt entries cited, without tags or fusion partners.
UniProt Q8N3Y1: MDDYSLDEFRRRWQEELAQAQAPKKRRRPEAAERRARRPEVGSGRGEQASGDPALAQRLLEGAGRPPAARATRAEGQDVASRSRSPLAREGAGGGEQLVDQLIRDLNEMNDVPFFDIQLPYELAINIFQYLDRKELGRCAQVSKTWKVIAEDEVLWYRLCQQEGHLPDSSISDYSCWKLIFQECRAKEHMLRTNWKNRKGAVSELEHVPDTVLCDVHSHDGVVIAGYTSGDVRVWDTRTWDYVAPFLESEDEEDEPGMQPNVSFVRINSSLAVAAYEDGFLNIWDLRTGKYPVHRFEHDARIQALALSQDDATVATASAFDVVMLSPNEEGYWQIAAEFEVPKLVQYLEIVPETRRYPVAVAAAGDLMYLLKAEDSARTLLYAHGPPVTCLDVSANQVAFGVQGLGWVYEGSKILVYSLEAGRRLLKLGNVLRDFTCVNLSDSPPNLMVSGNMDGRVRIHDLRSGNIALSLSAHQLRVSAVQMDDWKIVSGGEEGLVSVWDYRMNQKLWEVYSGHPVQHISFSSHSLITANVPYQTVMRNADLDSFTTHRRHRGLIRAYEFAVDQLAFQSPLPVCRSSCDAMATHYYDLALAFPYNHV
UniProt P63208: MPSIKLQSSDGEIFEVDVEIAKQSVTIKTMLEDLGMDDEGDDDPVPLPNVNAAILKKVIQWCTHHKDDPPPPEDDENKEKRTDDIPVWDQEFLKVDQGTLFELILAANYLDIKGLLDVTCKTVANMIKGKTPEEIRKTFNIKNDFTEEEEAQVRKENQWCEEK

These are yes or no findings as the source states them, for the method shown. Some results given as binding are weak or reduced against the parent protein; the word gives no strength.

The target of this experiment is FBXW8 (human) (UniProt Q8N3Y1). The experiment is described as follows: cryo-EM structure; CRL7^FBXW8 co-expressed in HEK293S and purified as a complex; 50 mM Tris pH 7.5, 150 mM NaCl, 5 mM DTT; about 1.7 mg/ml; Titan Krios 300 kV; both purified.

Take SKP1 (from UniProt P63208 1-163): the binding result was “binds”.
